# The list is a part of this screen's results and no random one: it gathers tests that were run many times, whatever their T/C, doses with no T/C, and many T/C values between a quarter and a half above the control. Further doses and runs are listed elsewhere. T/C is the treated group as % of the vehicle group. Some doses have a count of surviving animals in place of a T/C: the source holds a T/C of zero for them, seemingly a mark for toxic or unscored doses. Some doses without a T/C left all or most animals alive at the check, yet need not have been tolerated: survival well below the control is almost never listed, so the zero probably covers shortened survival too. Counts of survivors are from the toxicity check (mostly the fifth day) where no day follows; animals may have died later. Schedule codes are those of the source, taken here to give the interval after Q, in days (D) or hours (H), and the number of doses after X. Some entries hold several experiments; their values stand side by side, smallest first. For survival time, the PubChem record calls one and a half times the control and up active, and a quarter to a half above the control has no call in these data; cut-offs in other NCI protocols can differ. Some T/C values are followed by the survivors on the day toxicity was checked, most often the fifth; where none is given, no animal had died by that day. Additions like (4×) give the number of equal values in this list. Some schedule codes hold Z or #, which are not explained here.
# Tested on: P388 leukemia ip, CD2F1 mice, survival T/C
# Assay: NCI In Vivo Anticancer Drug Screen. Data for tumor model P388 Leukemia (intraperitoneal) in CD2F1 (CDF1) mice
# Conditions: T/C endpoint: median survival time, higher T/C = longer survival
# [1] = dose: 50.0 mg/kg/injection, schedule: Q01DX009 (ip), vehicle: Klucel (hydroxypropylcellulose) (HPC)
smiles,measurement,setting,value
O=P1(N(CCCl)CCCl)NCCCO1 (stereo not drawn),T/C,"dose: 50.0 mg/kg/injection, schedule: Q01DX001 (ip), vehicle: saline, evaluated on day 10",148 % of control
same,T/C,"dose: 50.0 mg/kg/injection, schedule: Q01DX001 (ip), vehicle: saline, evaluated on day 60",135 % of control
same,T/C,"dose: 50.0 mg/kg/injection, schedule: Q01DX005 (ip), vehicle: Klucel (hydroxypropylcellulose) (HPC), evaluated on day 30","95, 113, 115, 118, 146, 163, 222, 226, 240 (2×), 245 (2×), 249, 250 (2×), 252, 252 [5 of 6 alive], 256, 258, 260, 266, 267, 272, 276, 277 (2×), 279, 285, 288 (3×), 294 (2×), 299 % of control"
same,T/C,"dose: 50.0 mg/kg/injection, schedule: Q01DX005 (ip), vehicle: Klucel (hydroxypropylcellulose) (HPC), evaluated on day 35",343 % of control
same,T/C,"dose: 50.0 mg/kg/injection, schedule: Q01DX005 (ip), vehicle: saline, evaluated on day 30","178, 201, 275, 294 (3×), 297, 309 % of control"
same,T/C,"dose: 50.0 mg/kg/injection, schedule: Q01DX005 (ip), vehicle: saline, evaluated on day 45",346 and 354 % of control
same,T/C,[1],"90, 97, 107, 109, 112, 119, 123, 127, 134, 143, 144, 146, 159, 163, 164, 166, 169, 170, 177, 182, 215, 219, 221, 232, 236, 254, 263, 265, 276, 278, 286, 290, 291, 309 % of control"
same,survivor count,[1],6 of 6
same,T/C,"dose: 50.0 mg/kg/injection, schedule: Q01DX009 (ip), vehicle: saline, evaluated on day 5",437 % of control
same,T/C,"dose: 50.0 mg/kg/injection, schedule: Q01DX009 (ip), vehicle: saline, evaluated on day 30","159, 233, 268, 291 % of control"
same,T/C,"dose: 50.0 mg/kg/injection, schedule: Q04DX002 (ip), vehicle: Klucel (hydroxypropylcellulose) (HPC)","142, 152, 157, 162, 166, 175, 181, 197, 198, 204, 209, 210, 211 (2×), 213, 215 (2×), 216, 218 [5 of 6 alive], 219, 227, 232, 233, 241 (2×), 242 (2×), 257, 258, 263, 264, 265, 270 (2×), 284 % of control"
same,T/C,"dose: 50.0 mg/kg/injection, schedule: Q04DX003 (ip), vehicle: Klucel (hydroxypropylcellulose) (HPC), evaluated on day 30","129, 146, 151, 154, 163, 174, 179, 194, 209, 213, 214, 220, 222, 228 (2×), 232, 236 (2×), 238, 245, 247 (2×), 250, 251, 252 (3×), 254, 257, 263, 271, 275, 277, 280, 297 % of control"
same,T/C,"dose: 50.0 mg/kg/injection, schedule: Q04DX003 (ip), vehicle: Klucel (hydroxypropylcellulose) (HPC), evaluated on day 35",308 % of control
same,T/C,"dose: 50.0 mg/kg/injection, schedule: Q04DX003 (ip), vehicle: saline, evaluated on day 30",248 % of control
same,T/C,"dose: 50.0 mg/kg/injection, schedule: Q04DX003 (ip), vehicle: saline, evaluated on day 45",212 and 230 % of control
same,T/C,"dose: 50.0 mg/kg/injection, schedule: Q04DX003 (ip), vehicle: saline, evaluated on day 50",236 % of control
same,T/C,"dose: 50.0 mg/kg/injection, schedule: Q## X001 (ip), vehicle: saline","100, 111, 118, 123 % of control"
same,T/C,"dose: 60.0 mg/kg/injection, schedule: Q01DX010 (ip), vehicle: water",145 % of control
same,T/C,"dose: 75.0 mg/kg/injection, schedule: Q01DX001 (ip), vehicle: saline, evaluated on day 5",151 and 155 % of control
same,T/C,"dose: 75.0 mg/kg/injection, schedule: Q01DX001 (ip), vehicle: saline, evaluated on day 9","94, 123, 143, 160, 179, 195, 197 % of control"
same,T/C,"dose: 80.0 mg/kg/injection, schedule: Q01DX005 (ip), vehicle: saline, evaluated on day 9",230 % of control
same,T/C,"dose: 80.0 mg/kg/injection, schedule: Q01DX005 (ip), vehicle: saline, evaluated on day 30","98, 100, 133, 198, 225 [5 of 6 alive], 247 [5 of 6 alive], 250, 255, 265 (3×), 270, 275, 277, 285, 294 (2×), 297 (3×), 300 (5×), 309 % of control"
same,T/C,"dose: 80.0 mg/kg/injection, schedule: Q01DX005 (ip), vehicle: saline, evaluated on day 35",110 % of control
same,T/C,"dose: 80.0 mg/kg/injection, schedule: Q01DX005 (ip), vehicle: saline, evaluated on day 60",550 and 582 % of control
same,survivor count,"dose: 80.0 mg/kg/injection, schedule: Q01DX005 (ip), vehicle: saline",6 of 6
same,T/C,"dose: 80.0 mg/kg/injection, schedule: Q01DX009 (ip), vehicle: saline, evaluated on day 30","89, 97, 99, 100 (2×), 105 [5 of 6 alive], 150, 159, 172, 175, 178, 190, 191, 254, 270 (3×), 283, 285 (2×), 290, 297 (2×), 300 % of control (3×)"
same,T/C,"dose: 80.0 mg/kg/injection, schedule: Q01DX009 (ip), vehicle: saline, evaluated on day 35",168 % of control
same,T/C,"dose: 80.0 mg/kg/injection, schedule: Q01DX009 (ip), vehicle: saline, evaluated on day 45",107 % of control
same,T/C,"dose: 80.0 mg/kg/injection, schedule: Q01DX009 (ip), vehicle: saline, evaluated on day 60",146 and 582 % of control
same,survivor count,"dose: 80.0 mg/kg/injection, schedule: Q01DX009 (ip), vehicle: saline",5 of 5 and 6 of 6
same,T/C,"dose: 100.0 mg/kg/injection, schedule: Q01DX001 (ip), vehicle: Klucel (hydroxypropylcellulose) (HPC), evaluated on day 30","101, 138, 167 [4 of 6 alive], 184, 190, 206, 208 (2×), 209, 214, 221, 237, 238, 241 (2×), 245 (2×), 247, 252 (2×), 254 (2×), 263, 264, 276, 283, 291, 294 % of control (2×)"
same,T/C,"dose: 100.0 mg/kg/injection, schedule: Q01DX001 (ip), vehicle: Klucel (hydroxypropylcellulose) (HPC), evaluated on day 35",250 % of control
same,survivor count,"dose: 100.0 mg/kg/injection, schedule: Q01DX001 (ip), vehicle: Klucel (hydroxypropylcellulose) (HPC)",3 of 3 and 6 of 6
same,T/C,"dose: 100.0 mg/kg/injection, schedule: Q01DX001 (ip), vehicle: saline, evaluated on day 5","181, 194 (2×), 202 % of control"
same,T/C,"dose: 100.0 mg/kg/injection, schedule: Q01DX001 (ip), vehicle: saline, evaluated on day 9","96, 115, 135 % of control"
same,T/C,"dose: 100.0 mg/kg/injection, schedule: Q01DX001 (ip), vehicle: saline, evaluated on day 10",190 % of control
same,T/C,"dose: 100.0 mg/kg/injection, schedule: Q01DX001 (ip), vehicle: saline, evaluated on day 21",194 % of control
same,T/C,"dose: 100.0 mg/kg/injection, schedule: Q01DX001 (ip), vehicle: saline, evaluated on day 30","167 [5 of 6 alive], 175, 179, 186, 193, 200 (2×), 208, 209, 215 (2×), 216 (2×), 217, 218, 230 (2×), 233, 247, 254, 258, 260, 265, 268, 294, 297 % of control"
same,T/C,"dose: 100.0 mg/kg/injection, schedule: Q01DX001 (ip), vehicle: saline, evaluated on day 35",233 % of control
same,T/C,"dose: 100.0 mg/kg/injection, schedule: Q01DX001 (ip), vehicle: saline, evaluated on day 60","120, 174, 181 % of control"
same,survivor count,"dose: 100.0 mg/kg/injection, schedule: Q01DX001 (ip), vehicle: saline",6 of 6
same,T/C,"dose: 100.0 mg/kg/injection, schedule: Q01DX005 (ip), vehicle: Klucel (hydroxypropylcellulose) (HPC), evaluated on day 30","87, 92, 94, 104, 106, 111, 114, 116, 117, 125, 127, 129, 132, 134, 156, 159, 161, 163, 171, 176, 222, 250, 251, 256, 265, 277, 288 (2×), 294, 297 % of control"
same,T/C,"dose: 100.0 mg/kg/injection, schedule: Q01DX005 (ip), vehicle: Klucel (hydroxypropylcellulose) (HPC), evaluated on day 35",137 % of control

# — PubChem BioAssay AID330 (DTP/NCI, 2004)
